# In the supplement of paper PMC8728848:
# This is one part of the list.
# Key:
# Assay in all cases: glycan array binding signal (z-score within array); higher = stronger binding
# Settings in all cases: glycan notation: IUPAC condensed, linker removed
# [1] = biological target: Fuc(a1-2)[Gal(a1-3)]Gal(b1-4)GlcNAc(b1-2)Man(a1-3)[Fuc(a1-2)[Gal(a1-3)]Gal(b1-4)GlcNAc(b1-2)Man(a1-6)]Man(b1-4)GlcNAc(b1-4)GlcNAc
# Outline: (§1)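 Glycan array binding is given as a within-array Z-score, which can be read as non-binding when negative. The arrays, 3228 of them, came from the Consortium for Functional Glycomics database and were retained only where the protein sequence was available. Z-scores were averaged across arrays of the same protein sequence at different concentrations or buffers and across linkers.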
# [2] = biological target: Fuc(a1-2)[Gal(a1-3)]Gal(b1-4)GlcNAc(b1-2)Man(a1-3)[Fuc(a1-2)[Gal(a1-3)]Gal(b1-4)GlcNAc(b1-2)Man(a1-6)]Man(b1-4)GlcNAc(b1-4)[Fuc(a1-6)]GlcNAc
# Outline: as §1
# [3] = biological target: Fuc(a1-2)[Gal(a1-3)]Gal(b1-4)GlcNAc(b1-3)GalNAc
# Outline: as §1
# [4] = biological target: Fuc(a1-2)[Gal(a1-3)]Gal(b1-4)GlcNAc(b1-3)[Fuc(a1-2)[Gal(a1-3)]Gal(b1-4)GlcNAc(b1-6)]GalNAc
# Outline: as §1
# [5] = biological target: Fuc(a1-2)[Gal(a1-3)]Gal(b1-4)GlcNAc(b1-6)GalNAc
# Outline: as §1
# [6] = biological target: Fuc(a1-2)[Gal(a1-3)]Gal(b1-4)[Fuc(a1-3)]Glc
# Outline: as §1
# [7] = biological target: Fuc(a1-2)[Gal(a1-3)]Gal(b1-4)[Fuc(a1-3)]GlcNAc
# Outline: as §1
# [8] = biological target: Fuc(a1-2)[Gal(a1-3)]Gal(b1-4)[Fuc(a1-3)]GlcNAc(b1-3)GalNAc
# Outline: as §1
# [9] = biological target: Fuc(a1-2)[Gal(a1-4)]Gal(b1-4)GlcNAc
# Outline: as §1
# [10] = biological target: Fuc(a1-2)[GalNAc(a1-3)]Gal
# Outline: as §1
# [11] = biological target: Fuc(a1-2)[GalNAc(a1-3)]Gal(b1-3)GalNAc(a1-3)[Fuc(a1-2)]Gal(b1-4)GlcNAc
# Outline: as §1
# [12] = biological target: Fuc(a1-2)[GalNAc(a1-3)]Gal(b1-3)GalNAc(b1-3)Gal(a1-4)Gal(b1-4)Glc
# Outline: as §1
# [13] = biological target: Fuc(a1-2)[GalNAc(a1-3)]Gal(b1-3)GlcNAc
# Outline: as §1
# [14] = biological target: Fuc(a1-2)[GalNAc(a1-3)]Gal(b1-3)GlcNAc(b1-2)Man(a1-3)[Fuc(a1-2)[GalNAc(a1-3)]Gal(b1-3)GlcNAc(b1-2)Man(a1-6)]Man(b1-4)GlcNAc(b1-4)GlcNAc
# Outline: as §1
# [15] = biological target: Fuc(a1-2)[GalNAc(a1-3)]Gal(b1-3)GlcNAc(b1-2)Man(a1-3)[Fuc(a1-2)[GalNAc(a1-3)]Gal(b1-3)GlcNAc(b1-2)Man(a1-6)]Man(b1-4)GlcNAc(b1-4)[Fuc(a1-6)]GlcNAc
# Outline: as §1
# [16] = biological target: Fuc(a1-2)[GalNAc(a1-3)]Gal(b1-3)GlcNAc(b1-3)GalNAc
# Outline: as §1
# [17] = biological target: Fuc(a1-2)[GalNAc(a1-3)]Gal(b1-3)GlcNAc(b1-6)GalNAc
# Outline: as §1
# [18] = biological target: Fuc(a1-2)[GalNAc(a1-3)]Gal(b1-4)Glc
# Outline: as §1
# [19] = biological target: Fuc(a1-2)[GalNAc(a1-3)]Gal(b1-4)GlcNAc
# Outline: as §1
# [20] = biological target: Fuc(a1-2)[GalNAc(a1-3)]Gal(b1-4)GlcNAc(b1-2)Man
# Outline: as §1
# [21] = biological target: Fuc(a1-2)[GalNAc(a1-3)]Gal(b1-4)GlcNAc(b1-2)Man(a1-3)[Fuc(a1-2)[GalNAc(a1-3)]Gal(b1-4)GlcNAc(b1-2)Man(a1-6)]Man(b1-4)GlcNAc(b1-4)GlcNAc
# Outline: as §1
# [22] = biological target: Fuc(a1-2)[GalNAc(a1-3)]Gal(b1-4)GlcNAc(b1-2)Man(a1-3)[Fuc(a1-2)[GalNAc(a1-3)]Gal(b1-4)GlcNAc(b1-2)Man(a1-6)]Man(b1-4)GlcNAc(b1-4)[Fuc(a1-6)]GlcNAc
# Outline: as §1
# [23] = biological target: Fuc(a1-2)[GalNAc(a1-3)]Gal(b1-4)GlcNAc(b1-3)Gal(b1-4)GlcNAc
# Outline: as §1
# [24] = biological target: Fuc(a1-2)[GalNAc(a1-3)]Gal(b1-4)GlcNAc(b1-3)Gal(b1-4)GlcNAc(b1-3)Gal(b1-4)GlcNAc
# Outline: as §1
# [25] = biological target: Fuc(a1-2)[GalNAc(a1-3)]Gal(b1-4)GlcNAc(b1-3)GalNAc
# Outline: as §1
# [26] = biological target: Fuc(a1-2)[GalNAc(a1-3)]Gal(b1-4)GlcNAc(b1-3)[Fuc(a1-2)[GalNAc(a1-3)]Gal(b1-4)GlcNAc(b1-6)]GalNAc
# Outline: as §1
# [27] = biological target: Fuc(a1-2)[GalNAc(a1-3)]Gal(b1-4)GlcNAc(b1-6)GalNAc
# Outline: as §1
# [28] = biological target: Fuc(a1-2)[GalNAc(a1-3)]Gal(b1-4)[Fuc(a1-3)]GlcNAc
# Outline: as §1
# [29] = biological target: Fuc(a1-2)[GalNAc(a1-3)]Gal(b1-4)[Fuc(a1-3)]GlcNAc(b1-3)GalNAc
# Outline: as §1
# [30] = biological target: Fuc(a1-2)[GalNAc(a1-4)]Gal(b1-4)GlcNAc
# Outline: as §1
# [31] = biological target: Fuc(a1-2)[GalNAc(b1-3)]Gal
# Outline: as §1
# [32] = biological target: Fuc(a1-3)GlcNAc
# Outline: as §1
# [33] = biological target: Fuc(a1-3)[Gal(b1-4)]Glc6S
# Outline: as §1
# [34] = biological target: Fuc(a1-3)[Gal(b1-4)]GlcNAc
# Outline: as §1
# [35] = biological target: Fuc(a1-3)[Gal(b1-4)]GlcNAc(b1-2)Man
# Outline: as §1
# [36] = biological target: Fuc(a1-3)[Gal(b1-4)]GlcNAc(b1-2)Man(a1-3)[Fuc(a1-3)[Gal(b1-4)]GlcNAc(b1-2)Man(a1-6)]Man(b1-4)GlcNAc(b1-4)GlcNAc
# Outline: as §1
# [37] = biological target: Fuc(a1-3)[Gal(b1-4)]GlcNAc(b1-2)Man(a1-3)[Fuc(a1-3)[Gal(b1-4)]GlcNAc(b1-2)Man(a1-6)]Man(b1-4)GlcNAc(b1-4)[Fuc(a1-6)]GlcNAc
# Outline: as §1
# [38] = biological target: Fuc(a1-3)[Gal(b1-4)]GlcNAc(b1-3)Gal(b1-3)[Fuc(a1-4)]GlcNAc
# Outline: as §1
# [39] = biological target: Fuc(a1-3)[Gal(b1-4)]GlcNAc(b1-3)Gal(b1-4)[Fuc(a1-3)]GlcNAc
# Outline: as §1
# [40] = biological target: Fuc(a1-3)[Gal(b1-4)]GlcNAc(b1-3)Gal(b1-4)[Fuc(a1-3)]GlcNAc(b1-3)Gal(b1-4)[Fuc(a1-3)]GlcNAc
# Outline: as §1
# [41] = biological target: Fuc(a1-3)[Gal(b1-4)]GlcNAc(b1-3)GalNAc
# Outline: as §1
# [42] = biological target: Fuc(a1-3)[Gal(b1-4)]GlcNAc(b1-6)GalNAc
# Outline: as §1
# [43] = biological target: Fuc(a1-3)[Gal(b1-4)]GlcNAc(b1-6)[Gal(b1-3)GlcNAc(b1-3)]Gal(b1-4)Glc
# Outline: as §1
# [44] = biological target: Fuc(a1-3)[Gal(b1-4)]GlcNAc6S
# Outline: as §1
# [45] = biological target: Fuc(a1-3)[Gal3S(b1-4)]Glc
# Outline: as §1
# [46] = biological target: Fuc(a1-3)[Gal3S(b1-4)]GlcNAc
# Outline: as §1
# [47] = biological target: Fuc(a1-3)[Gal3S(b1-4)]GlcNAc6S
# Outline: as §1
# [48] = biological target: Fuc(a1-3)[GalNAc(b1-4)]GlcNAc
# Outline: as §1
# [49] = biological target: Fuc(a1-3)[GalNAc(b1-4)]GlcNAc6S
# Outline: as §1
# [50] = biological target: Fuc(a1-4)GlcNAc
# Outline: as §1
# [51] = biological target: Fuc(b1-3)GlcNAc
# Outline: as §1
# [52] = biological target: Gal(a1-2)Gal
# Outline: as §1
# [53] = biological target: Gal(a1-3)Gal
# Outline: as §1
# [54] = biological target: Gal(a1-3)Gal(b1-3)GlcNAc
# Outline: as §1
# [55] = biological target: Gal(a1-3)Gal(b1-3)GlcNAc(b1-2)Man
# Outline: as §1
# [56] = biological target: Gal(a1-3)Gal(b1-3)GlcNAc(b1-2)Man(a1-3)[Gal(a1-3)Gal(b1-3)GlcNAc(b1-2)Man(a1-6)]Man(b1-4)GlcNAc(b1-4)GlcNAc
# Outline: as §1
# [57] = biological target: Gal(a1-3)Gal(b1-3)GlcNAc(b1-3)GalNAc
# Outline: as §1
# [58] = biological target: Gal(a1-3)Gal(b1-3)GlcNAc(b1-6)GalNAc
# Outline: as §1
# [59] = biological target: Gal(a1-3)Gal(b1-3)[Fuc(a1-4)]GlcNAc(b1-2)Man(a1-3)[Gal(a1-3)Gal(b1-3)[Fuc(a1-4)]GlcNAc(b1-2)Man(a1-6)]Man(b1-4)GlcNAc(b1-4)GlcNAc
# Outline: as §1
# [60] = biological target: Gal(a1-3)Gal(b1-4)Glc
# Outline: as §1
binder,measurement,setting,value
"OS9-MRH (Homo sapiens), Q13438 (protein) IPELLSPMRDAPCLLKTKDWWTYEFCYGRHIQQYHMEDSEIKGEVLYLGYYQSAFDWDDETAKASKQHRLKRYHSQTYGNGSKCDLNGRPREAEVRFLCDEGAGISGDYIDRVDEPLSCSYVLTIRTPRLCPHPLLRPPPSAAPQAI",glycan array binding signal (z-score),[1],-1.81
same,glycan array binding signal (z-score),[2],-1.83
same,glycan array binding signal (z-score),[3],0.227
same,glycan array binding signal (z-score),[4],0.015
same,glycan array binding signal (z-score),[5],-1.79
same,glycan array binding signal (z-score),[6],-0.257
same,glycan array binding signal (z-score),[7],1.44
same,glycan array binding signal (z-score),[8],-0.319
same,glycan array binding signal (z-score),[9],0.547
same,glycan array binding signal (z-score),[10],-0.072
same,glycan array binding signal (z-score),[11],-0.326
same,glycan array binding signal (z-score),[12],-0.481
same,glycan array binding signal (z-score),[13],-1.52
same,glycan array binding signal (z-score),[14],0.767
same,glycan array binding signal (z-score),[15],0.172
same,glycan array binding signal (z-score),[16],0.619
same,glycan array binding signal (z-score),[17],-1.4
same,glycan array binding signal (z-score),[18],0.735
same,glycan array binding signal (z-score),[19],-0.169
same,glycan array binding signal (z-score),[20],-1.1
same,glycan array binding signal (z-score),[21],0.281
same,glycan array binding signal (z-score),[22],-0.948
same,glycan array binding signal (z-score),[23],-1.56
same,glycan array binding signal (z-score),[24],-1.03
same,glycan array binding signal (z-score),[25],0.338
same,glycan array binding signal (z-score),[26],-2.2
same,glycan array binding signal (z-score),[27],-0.599
same,glycan array binding signal (z-score),[28],-0.402
same,glycan array binding signal (z-score),[29],-0.617
same,glycan array binding signal (z-score),[30],0.113
same,glycan array binding signal (z-score),[31],2.09
same,glycan array binding signal (z-score),[32],-1.28
same,glycan array binding signal (z-score),[33],-1.74
same,glycan array binding signal (z-score),[34],0.745
same,glycan array binding signal (z-score),[35],-0.53
same,glycan array binding signal (z-score),[36],1.98
same,glycan array binding signal (z-score),[37],-0.779
same,glycan array binding signal (z-score),[38],-0.355
same,glycan array binding signal (z-score),[39],1.74
same,glycan array binding signal (z-score),[40],2.81
same,glycan array binding signal (z-score),[41],-1.07
same,glycan array binding signal (z-score),[42],-0.452
same,glycan array binding signal (z-score),[43],-0.303
same,glycan array binding signal (z-score),[44],-2.11
same,glycan array binding signal (z-score),[45],0.856
same,glycan array binding signal (z-score),[46],-0.514
same,glycan array binding signal (z-score),[47],1.39
same,glycan array binding signal (z-score),[48],-0.024
same,glycan array binding signal (z-score),[49],-1.25
same,glycan array binding signal (z-score),[50],0.44
same,glycan array binding signal (z-score),[51],-0.384
same,glycan array binding signal (z-score),[52],0.273
same,glycan array binding signal (z-score),[53],0.749
same,glycan array binding signal (z-score),[54],0.114
same,glycan array binding signal (z-score),[55],0.298
same,glycan array binding signal (z-score),[56],1.34
same,glycan array binding signal (z-score),[57],-0.967
same,glycan array binding signal (z-score),[58],0.317
same,glycan array binding signal (z-score),[59],2.15
same,glycan array binding signal (z-score),[60],0.502

# 4 successive records out of the list so far, quoted:
binder,measurement,setting,value
"OS9-MRH (Homo sapiens), Q13438 (protein) IPELLSPMRDAPCLLKTKDWWTYEFCYGRHIQQYHMEDSEIKGEVLYLGYYQSAFDWDDETAKASKQHRLKRYHSQTYGNGSKCDLNGRPREAEVRFLCDEGAGISGDYIDRVDEPLSCSYVLTIRTPRLCPHPLLRPPPSAAPQAI",glycan array binding signal (z-score),[3],0.227
same,glycan array binding signal (z-score),[4],0.015
same,glycan array binding signal (z-score),[5],-1.79
same,glycan array binding signal (z-score),[6],-0.257
